We go through 4 substances from article PMC7820895.

Chains of the proteins cited; added tags and fusions are not shown. Lines headed by an entry give the natural chain unless they say otherwise; changes in a name come on top. Residues count along the entry.
UniProt P01031: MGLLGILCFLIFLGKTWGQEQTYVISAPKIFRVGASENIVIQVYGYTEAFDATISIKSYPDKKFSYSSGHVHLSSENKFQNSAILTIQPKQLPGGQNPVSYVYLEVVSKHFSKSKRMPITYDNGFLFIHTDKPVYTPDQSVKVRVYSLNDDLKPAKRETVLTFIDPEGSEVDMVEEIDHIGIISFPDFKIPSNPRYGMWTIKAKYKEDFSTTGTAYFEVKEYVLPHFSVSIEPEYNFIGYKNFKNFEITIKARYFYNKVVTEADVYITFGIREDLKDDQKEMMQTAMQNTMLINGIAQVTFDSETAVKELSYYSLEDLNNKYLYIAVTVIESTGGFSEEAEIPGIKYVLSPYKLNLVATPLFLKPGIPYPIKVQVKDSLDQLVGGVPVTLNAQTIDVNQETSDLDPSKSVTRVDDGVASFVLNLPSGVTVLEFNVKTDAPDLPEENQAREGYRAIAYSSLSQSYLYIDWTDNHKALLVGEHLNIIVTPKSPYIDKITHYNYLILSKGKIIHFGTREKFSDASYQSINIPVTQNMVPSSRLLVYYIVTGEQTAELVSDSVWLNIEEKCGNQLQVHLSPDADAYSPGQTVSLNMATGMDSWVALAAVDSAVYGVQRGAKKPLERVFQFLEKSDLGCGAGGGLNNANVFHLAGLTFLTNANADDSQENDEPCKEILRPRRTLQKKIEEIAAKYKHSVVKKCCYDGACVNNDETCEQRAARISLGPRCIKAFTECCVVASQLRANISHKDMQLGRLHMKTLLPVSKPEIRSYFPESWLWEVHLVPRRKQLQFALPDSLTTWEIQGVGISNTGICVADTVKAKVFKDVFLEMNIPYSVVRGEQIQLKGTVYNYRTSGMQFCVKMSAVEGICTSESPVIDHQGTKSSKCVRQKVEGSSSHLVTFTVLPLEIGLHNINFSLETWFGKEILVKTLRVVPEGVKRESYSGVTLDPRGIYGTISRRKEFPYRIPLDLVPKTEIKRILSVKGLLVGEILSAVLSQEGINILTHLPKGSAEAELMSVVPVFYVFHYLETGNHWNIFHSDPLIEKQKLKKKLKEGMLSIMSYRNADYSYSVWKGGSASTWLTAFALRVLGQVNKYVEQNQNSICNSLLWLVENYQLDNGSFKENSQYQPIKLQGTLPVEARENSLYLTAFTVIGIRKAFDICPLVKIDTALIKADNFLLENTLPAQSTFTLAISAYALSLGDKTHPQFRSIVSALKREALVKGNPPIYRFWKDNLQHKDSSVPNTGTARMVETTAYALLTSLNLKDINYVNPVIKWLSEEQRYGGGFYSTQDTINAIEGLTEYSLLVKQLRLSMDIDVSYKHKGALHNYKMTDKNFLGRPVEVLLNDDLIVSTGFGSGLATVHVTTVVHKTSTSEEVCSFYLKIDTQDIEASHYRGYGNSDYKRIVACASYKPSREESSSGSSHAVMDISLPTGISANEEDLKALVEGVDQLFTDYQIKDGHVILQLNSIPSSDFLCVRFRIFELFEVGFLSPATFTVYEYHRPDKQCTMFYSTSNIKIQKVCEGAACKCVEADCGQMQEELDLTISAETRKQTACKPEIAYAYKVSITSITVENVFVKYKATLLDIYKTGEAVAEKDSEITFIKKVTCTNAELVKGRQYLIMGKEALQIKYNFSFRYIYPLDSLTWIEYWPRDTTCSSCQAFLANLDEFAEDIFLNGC
UniProt P10643, residues 23-843: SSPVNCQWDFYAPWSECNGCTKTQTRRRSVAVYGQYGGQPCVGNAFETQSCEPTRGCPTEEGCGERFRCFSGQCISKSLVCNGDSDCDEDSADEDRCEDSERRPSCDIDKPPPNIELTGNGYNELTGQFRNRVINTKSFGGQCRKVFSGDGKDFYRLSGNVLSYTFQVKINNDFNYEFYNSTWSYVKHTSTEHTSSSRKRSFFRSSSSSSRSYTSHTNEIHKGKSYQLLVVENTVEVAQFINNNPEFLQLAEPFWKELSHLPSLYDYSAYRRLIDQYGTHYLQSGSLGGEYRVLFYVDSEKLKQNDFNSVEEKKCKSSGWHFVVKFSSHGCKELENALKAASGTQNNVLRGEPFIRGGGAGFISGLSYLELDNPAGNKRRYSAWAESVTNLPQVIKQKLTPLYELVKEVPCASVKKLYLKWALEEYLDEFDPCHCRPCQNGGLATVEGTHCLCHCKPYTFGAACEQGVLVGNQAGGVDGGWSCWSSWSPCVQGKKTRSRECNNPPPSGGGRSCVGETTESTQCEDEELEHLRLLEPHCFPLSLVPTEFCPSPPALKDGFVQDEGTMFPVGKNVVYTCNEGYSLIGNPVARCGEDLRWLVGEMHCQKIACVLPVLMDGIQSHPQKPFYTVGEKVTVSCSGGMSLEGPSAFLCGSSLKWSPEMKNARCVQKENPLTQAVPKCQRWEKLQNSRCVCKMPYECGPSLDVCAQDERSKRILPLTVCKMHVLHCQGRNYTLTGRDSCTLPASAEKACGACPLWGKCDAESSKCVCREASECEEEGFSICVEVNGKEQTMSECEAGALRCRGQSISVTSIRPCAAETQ
UniProt P07357: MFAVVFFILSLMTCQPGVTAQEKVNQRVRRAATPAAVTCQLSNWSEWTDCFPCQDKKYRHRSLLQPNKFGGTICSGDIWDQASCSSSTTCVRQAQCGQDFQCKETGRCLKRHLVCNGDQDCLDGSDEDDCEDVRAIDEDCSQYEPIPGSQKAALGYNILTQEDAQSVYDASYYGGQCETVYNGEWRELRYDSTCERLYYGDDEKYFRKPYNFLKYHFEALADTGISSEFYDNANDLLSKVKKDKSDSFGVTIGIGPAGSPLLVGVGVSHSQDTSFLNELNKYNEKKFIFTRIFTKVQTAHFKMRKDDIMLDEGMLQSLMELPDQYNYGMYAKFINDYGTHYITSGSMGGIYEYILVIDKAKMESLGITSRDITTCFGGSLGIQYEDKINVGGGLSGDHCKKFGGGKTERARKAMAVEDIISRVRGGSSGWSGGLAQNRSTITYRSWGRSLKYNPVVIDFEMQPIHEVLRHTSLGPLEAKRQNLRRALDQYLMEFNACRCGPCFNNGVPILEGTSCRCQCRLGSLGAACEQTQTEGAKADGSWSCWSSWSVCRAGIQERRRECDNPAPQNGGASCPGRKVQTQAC
UniProt P07358: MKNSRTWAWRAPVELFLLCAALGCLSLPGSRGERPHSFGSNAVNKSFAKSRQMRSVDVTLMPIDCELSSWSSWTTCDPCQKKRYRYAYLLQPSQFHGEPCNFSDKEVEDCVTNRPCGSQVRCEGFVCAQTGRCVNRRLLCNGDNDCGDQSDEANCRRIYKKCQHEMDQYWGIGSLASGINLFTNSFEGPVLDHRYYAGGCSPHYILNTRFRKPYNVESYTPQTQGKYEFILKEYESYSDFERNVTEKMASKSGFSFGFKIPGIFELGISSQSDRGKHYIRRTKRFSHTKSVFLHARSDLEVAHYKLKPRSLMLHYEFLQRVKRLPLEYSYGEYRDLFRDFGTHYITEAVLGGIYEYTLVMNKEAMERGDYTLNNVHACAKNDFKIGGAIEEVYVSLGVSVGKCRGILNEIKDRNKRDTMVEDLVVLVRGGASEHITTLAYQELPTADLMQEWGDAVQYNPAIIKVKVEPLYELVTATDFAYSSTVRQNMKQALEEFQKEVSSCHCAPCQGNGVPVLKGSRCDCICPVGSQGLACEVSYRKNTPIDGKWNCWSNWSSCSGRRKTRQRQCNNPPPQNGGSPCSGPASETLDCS
UniProt P07360: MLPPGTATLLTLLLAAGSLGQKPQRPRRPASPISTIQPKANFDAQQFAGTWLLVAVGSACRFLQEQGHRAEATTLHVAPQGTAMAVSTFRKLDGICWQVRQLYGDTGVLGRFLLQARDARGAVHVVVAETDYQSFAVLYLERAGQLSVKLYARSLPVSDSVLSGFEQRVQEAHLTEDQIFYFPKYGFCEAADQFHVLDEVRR
UniProt P13671, residues 22-934: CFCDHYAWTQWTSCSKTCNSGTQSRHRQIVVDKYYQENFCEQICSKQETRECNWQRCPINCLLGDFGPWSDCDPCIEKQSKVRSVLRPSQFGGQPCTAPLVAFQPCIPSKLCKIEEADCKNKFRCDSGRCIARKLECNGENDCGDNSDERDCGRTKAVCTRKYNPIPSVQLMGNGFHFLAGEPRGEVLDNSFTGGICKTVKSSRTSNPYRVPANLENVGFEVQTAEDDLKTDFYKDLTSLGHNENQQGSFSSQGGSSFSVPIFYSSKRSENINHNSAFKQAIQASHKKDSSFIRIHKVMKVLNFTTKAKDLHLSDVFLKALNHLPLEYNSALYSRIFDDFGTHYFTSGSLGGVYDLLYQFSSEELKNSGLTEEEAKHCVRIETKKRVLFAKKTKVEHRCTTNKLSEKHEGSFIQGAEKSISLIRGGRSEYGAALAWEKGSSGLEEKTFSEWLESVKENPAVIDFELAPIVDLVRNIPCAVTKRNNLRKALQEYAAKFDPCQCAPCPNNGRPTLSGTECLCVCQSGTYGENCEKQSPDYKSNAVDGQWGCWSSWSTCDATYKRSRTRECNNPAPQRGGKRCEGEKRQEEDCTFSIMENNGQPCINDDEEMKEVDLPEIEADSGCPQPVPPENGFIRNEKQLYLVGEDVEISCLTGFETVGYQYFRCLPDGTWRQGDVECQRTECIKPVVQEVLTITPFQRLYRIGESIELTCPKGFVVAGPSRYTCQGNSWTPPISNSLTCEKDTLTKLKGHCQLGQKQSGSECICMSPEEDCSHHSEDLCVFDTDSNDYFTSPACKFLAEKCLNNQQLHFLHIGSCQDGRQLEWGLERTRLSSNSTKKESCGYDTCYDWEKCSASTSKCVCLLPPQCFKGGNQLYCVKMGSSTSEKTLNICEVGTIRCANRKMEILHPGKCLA

Assay in all cases: cross-linking
The target of test [1] is complement component C5b (human) (UniProt P01031).
The target in test [2] is complement component C7 (human) (UniProt P10643).
Test [3] has as its target complement component C9 (human) (UniProt P02748).
Test [4] addresses complement component C8 (α, β, and γ) (human) (UniProt P07357+P07358+P07360).
The target in test [5] is complement component C6 (human) (UniProt P13671).

Results are given in words; binding and its absence hold for the method and conditions named. In cells and extracts the contact can be indirect. Some results given as binding are weak or reduced against the parent protein; the word gives no strength.

In the case of “complement component C6 (from UniProt P13671 22-934)”, in test [1], the binding entry is given as “binds”.

Turning to “complement component C8 (α, β, and γ) (from UniProt P07357 31-584; P07358 55-591; P07360 21-202) (complex)”, the binding result in test [2] is listed as “binds”.

For the substance “complement component C9 (from UniProt P02748 22-559)”, the binding result in test [3] and in test [4] was “binds” throughout.

Turning to “complement component C7 (from UniProt P10643 23-843)”, the binding entry in test [5] is recorded as “binds”.
